Source: paper PMC12222027, “In situ structure of a bacterial flagellar motor at subnanometre resolution reveals adaptations for increased torque” (Nature Microbiology, 2025)
These are yes or no findings as the source states them, for the method shown. In cells and extracts the contact can be indirect. These calls come from enrichment with a bait or labelling near it, and not all partners need be listed. Tags and fused reporters may be left off the sequences shown.

Biological target: T1, C-terminal FLAG-tagged PflB (C. jejuni 81-176, plasmid pDAR3414) (C. jejuni 81-176)
T1 sequence: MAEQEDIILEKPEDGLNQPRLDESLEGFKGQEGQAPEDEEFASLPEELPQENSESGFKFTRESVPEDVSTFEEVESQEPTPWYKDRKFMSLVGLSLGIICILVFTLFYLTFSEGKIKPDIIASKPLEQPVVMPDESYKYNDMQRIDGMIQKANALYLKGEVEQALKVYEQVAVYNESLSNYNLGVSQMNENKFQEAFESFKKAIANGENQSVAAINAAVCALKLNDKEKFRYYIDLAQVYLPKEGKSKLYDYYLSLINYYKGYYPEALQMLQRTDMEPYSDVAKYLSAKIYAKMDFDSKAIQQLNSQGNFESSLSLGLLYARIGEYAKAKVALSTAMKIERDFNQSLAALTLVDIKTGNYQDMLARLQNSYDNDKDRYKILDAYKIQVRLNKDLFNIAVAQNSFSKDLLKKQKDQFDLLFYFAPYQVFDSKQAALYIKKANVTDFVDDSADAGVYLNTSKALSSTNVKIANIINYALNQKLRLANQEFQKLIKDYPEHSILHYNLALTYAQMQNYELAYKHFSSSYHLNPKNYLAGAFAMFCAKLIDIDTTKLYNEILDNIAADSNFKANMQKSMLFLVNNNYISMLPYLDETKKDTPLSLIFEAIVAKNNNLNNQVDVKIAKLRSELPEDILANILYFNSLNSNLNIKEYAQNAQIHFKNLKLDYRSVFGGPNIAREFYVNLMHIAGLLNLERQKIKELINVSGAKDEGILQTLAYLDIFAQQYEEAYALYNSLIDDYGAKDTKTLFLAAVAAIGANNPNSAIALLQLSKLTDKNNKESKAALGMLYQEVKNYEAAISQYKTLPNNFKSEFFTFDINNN
Assay: affinity purification with mass spectrometry; C. jejuni 81-176 ΔpflA or ΔpflB expressing C-terminal FLAG-tagged PflA or PflB; 0.1% formaldehyde crosslinking; osmotic lysis; α-FLAG M2 affinity resin; LC–MS/MS; FLAG-tag alone as negative control

Question: Which binding does the source give for “FliL (C. jejuni 81-176, endogenous) (from UniProt A0A0H3PIF6)” here?
Answer: binds
